Reference: PMC12240075
Results are given in words; binding and its absence hold for the method and conditions named. Binding seen in cells or lysates may run through a third protein. Some binding calls cover weakened binding; strength is not graded here. For some of these results: Sequences can lack the tags named with a protein. One block for each molecule: values may come before it.

Sequences of proteins named here, by UniProt entry; tags and fusion partners are left off. Residues count along the entry.
UniProt P11142: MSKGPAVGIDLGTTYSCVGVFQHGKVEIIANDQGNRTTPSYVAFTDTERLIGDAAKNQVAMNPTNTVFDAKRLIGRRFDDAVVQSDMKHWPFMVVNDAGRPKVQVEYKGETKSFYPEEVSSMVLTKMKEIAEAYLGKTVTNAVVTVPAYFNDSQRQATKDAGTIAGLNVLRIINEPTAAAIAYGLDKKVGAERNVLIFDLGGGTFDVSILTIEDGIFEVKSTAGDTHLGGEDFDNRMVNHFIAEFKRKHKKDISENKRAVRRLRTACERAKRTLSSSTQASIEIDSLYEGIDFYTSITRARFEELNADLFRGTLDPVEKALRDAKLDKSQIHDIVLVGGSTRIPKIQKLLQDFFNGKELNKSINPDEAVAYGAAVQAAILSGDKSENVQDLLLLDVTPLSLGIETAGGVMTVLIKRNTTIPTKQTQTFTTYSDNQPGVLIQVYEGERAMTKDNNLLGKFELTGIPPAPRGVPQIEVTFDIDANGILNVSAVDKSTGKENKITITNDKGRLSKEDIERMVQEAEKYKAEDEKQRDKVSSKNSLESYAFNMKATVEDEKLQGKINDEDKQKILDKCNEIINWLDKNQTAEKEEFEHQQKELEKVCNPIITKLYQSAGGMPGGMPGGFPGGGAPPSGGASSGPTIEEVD
UniProt P63279: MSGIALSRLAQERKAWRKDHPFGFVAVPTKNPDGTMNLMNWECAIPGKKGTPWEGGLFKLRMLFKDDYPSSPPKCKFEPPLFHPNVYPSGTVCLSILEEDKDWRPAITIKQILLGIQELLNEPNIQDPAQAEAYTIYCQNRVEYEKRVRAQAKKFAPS
UniProt P13473, residues 29-410: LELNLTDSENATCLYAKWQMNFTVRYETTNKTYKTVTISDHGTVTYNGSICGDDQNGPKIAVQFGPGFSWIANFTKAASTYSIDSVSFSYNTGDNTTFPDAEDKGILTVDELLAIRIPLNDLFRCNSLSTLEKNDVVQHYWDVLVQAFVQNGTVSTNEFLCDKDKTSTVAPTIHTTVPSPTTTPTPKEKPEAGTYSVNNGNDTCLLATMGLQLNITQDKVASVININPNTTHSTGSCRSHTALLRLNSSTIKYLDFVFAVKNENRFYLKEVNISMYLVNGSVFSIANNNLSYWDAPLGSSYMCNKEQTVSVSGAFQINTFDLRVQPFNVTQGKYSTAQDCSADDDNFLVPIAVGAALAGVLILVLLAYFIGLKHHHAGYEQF
UniProt P14618: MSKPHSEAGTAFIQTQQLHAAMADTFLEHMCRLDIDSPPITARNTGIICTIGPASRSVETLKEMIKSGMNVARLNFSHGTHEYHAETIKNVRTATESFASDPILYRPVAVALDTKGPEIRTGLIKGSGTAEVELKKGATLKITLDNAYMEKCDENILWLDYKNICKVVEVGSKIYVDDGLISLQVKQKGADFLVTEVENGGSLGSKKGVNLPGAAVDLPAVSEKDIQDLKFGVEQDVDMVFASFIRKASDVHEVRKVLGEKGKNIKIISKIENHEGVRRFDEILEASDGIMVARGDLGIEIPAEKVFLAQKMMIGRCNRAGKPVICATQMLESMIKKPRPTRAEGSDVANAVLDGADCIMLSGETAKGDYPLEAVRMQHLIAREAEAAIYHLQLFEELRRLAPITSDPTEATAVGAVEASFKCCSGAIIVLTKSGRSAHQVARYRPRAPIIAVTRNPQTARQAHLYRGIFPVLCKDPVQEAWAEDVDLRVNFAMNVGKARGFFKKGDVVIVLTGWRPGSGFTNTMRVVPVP

Legend:
HA-HSC70 [1] = target: HA-HSC70 (UniProt P11142); test: co-IP; both proteins tagged and overproduced in transfected cells (HEK293T); immunoprecipitation by the tag, immunoblot; lysis buffer 200 mM NaCl, 1 mM EDTA, 20 mM Tris (pH 7.5), 0.5% NP-40
HA-HSC70 [2] = target: HA-HSC70 (UniProt P11142); test: co-IP; tagged bait overproduced in transfected HEK293T cells, partner endogenous; lysis buffer 200 mM NaCl, 1 mM EDTA, 20 mM Tris (pH 7.5), 0.5% NP-40; for Lamp2a (Fig. 3I, 6I) cells treated with 10 μM CQ for 3 h
HA-HSC70 [3] = target: HA-HSC70 (UniProt P11142); test: as above; remark: listed apart in the source
[4] = target: Ubc9 (endogenous) (human (endogenous in HEK293T)) (UniProt P63279); test: co-IP; both proteins endogenous, from cell lysates; lysis buffer 200 mM NaCl, 1 mM EDTA, 20 mM Tris (pH 7.5), 0.5% NP-40
[5] = target: lysosome-associated membrane protein type 2a (endogenous) (human (endogenous in HEK293T)) (UniProt P13473); test: as above
HA-HSC70 [6] = target: HA-HSC70 (UniProt P11142); test: co-IP; both proteins tagged and overproduced in transfected cells (HEK293T); immunoprecipitation by the tag, immunoblot; lysis buffer 200 mM NaCl, 1 mM EDTA, 20 mM Tris (pH 7.5), 0.5% NP-40; remark: listed apart in the source
HA-Lamp2a = HA-Lamp2a (UniProt P13473); test: as above
GST-HSC70 = GST-HSC70 (UniProt P11142); test: pull-down; recombinant GST fusion protein incubated with lysates of transfected cells, GST pull-down, immunoblot; in Fig. 3D also lysates of cells treated with 100 μM GA for 24 h; only the target purified
GST-Ubc9 = GST-Ubc9 (UniProt P63279); test: as above
Flag-Ubc9 = Flag-Ubc9 (UniProt P63279); test: co-IP; both proteins tagged and overproduced in transfected cells (HEK293T); immunoprecipitation by the tag, immunoblot; lysis buffer 200 mM NaCl, 1 mM EDTA, 20 mM Tris (pH 7.5), 0.5% NP-40

binding (HA-HSC70 [1]): binds
Molecule: Flag-PKM2 (from UniProt P14618 1-531)

binding (HA-HSC70 [2]): binds
Molecule: pyruvate kinase M2 (endogenous) (from UniProt P14618 1-531)

binding (HA-HSC70 [3]): binds | binding [4]: binds | binding [5]: binds
B1: O-GlcNAcase (endogenous) (protein, UniProt O60502 1-916)
chain: MVQKESQATLEERESELSSNPAASAGASLEPPAAPAPGEDNPAGAGGAAVAGAAGGARRFLCGVVEGFYGRPWVMEQRKELFRRLQKWELNTYLYAPKDDYKHRMFWREMYSVEEAEQLMTLISAAREYEIEFIYAISPGLDITFSNPKEVSTLKRKLDQVSQFGCRSFALLFDDIDHNMCAADKEVFSSFAHAQVSITNEIYQYLGEPETFLFCPTEYCGTFCYPNVSQSPYLRTVGEKLLPGIEVLWTGPKVVSKEIPVESIEEVSKIIKRAPVIWDNIHANDYDQKRLFLGPYKGRSTELIPRLKGVLTNPNCEFEANYVAIHTLATWYKSNMNGVRKDVVMTDSEDSTVSIQIKLENEGSDEDIETDVLYSPQMALKLALTEWLQEFGVPHQYSSRQVAHSGAKASVVDGTPLVAAPSLNATTVVTTVYQEPIMSQGAALSGEPTTLTKEEEKKQPDEEPMDMVVEKQEETDHKNDNQILSEIVEAKMAEELKPMDTDKESIAESKSPEMSMQEDCISDIAPMQTDEQTNKEQFVPGPNEKPLYTAEPVTLEDLQLLADLFYLPYEHGPKGAQMLREFQWLRANSSVVSVNCKGKDSEKIEEWRSRAAKFEEMCGLVMGMFTRLSNCANRTILYDMYSYVWDIKSIMSMVKSFVQWLGCRSHSSAQFLIGDQEPWAFRGGLAGEFQRLLPIDGANDLFFQPPPLTPTSKVYTIRPYFPKDEASVYKICREMYDDGVGLPFQSQPDLIGDKLVGGLLSLSLDYCFVLEDEDGICGYALGTVDVTPFIKKCKISWIPFMQEKYTKPNGDKELSEAEKIMLSFHEEQEVLPETFLANFPSLIKMDIHKKVTDPSVAKSMMACLLSSLKANGSRGAFCEVRPDDKRILEFYSKLGCFEIAKMEGFPKDVVILGRSL

binding (HA-HSC70 [6]): binds | binding (HA-Lamp2a): binds
B2: Flag-OGA (protein, UniProt O60502 1-916)
chain: B1 chain

binding (GST-HSC70): binds | binding (GST-Ubc9): binds | binding (Flag-Ubc9): binds
B3: HA-OGA-WT (protein, UniProt O60502 1-916)
chain: B1 chain
